According to US20130060004 (published 2013):
Square brackets hold non-standard residues; d marks the D form. * marks the point of attachment. His(Trt) = N[C@@H](Cc1cn(C(c2ccccc2)(c2ccccc2)c2ccccc2)cn1)C(=O)O; pGlu = O=C1CC[C@@H](C(=O)O)N1; Boc = CC(C)(C)OC(=O)*; tBu = CC(C)(C)*

What was measured:
[1] = general procedure: hybrid (solid and solution phase) peptide synthesis; 2-chlorotrityl chloride resin or ethylamine 2-chlorotrityl resin; DIC/6-Cl-HOBt (fragment coupling: DIC/6-Cl-HOBt, DIC/HOBt, HBTU/HOBt/DIEA or DIC); conditions: acetate
[2] = general procedure: hybrid (solid and solution phase) peptide synthesis; 2-CTC resin; DIC/6-Cl-HOBt (fragment coupling: DIC/6-Cl-HOBt, DIC/HOBt, HBTU/HOBt/DIEA or DIC); conditions: purification step, acetate

Substance	final HPLC purity ([1]; purification step, HPLC) [%]	step yield ([1]; purification step) [%]	final purity (method not given) ([1]; whole synthesis, HPLC)	final HPLC purity ([2]; HPLC) [%]	step yield [2] [%]
5-oxo-L-prolyl-L-histidyl-L-tryptophyl-L-seryl-L-tyrosyl-D-leucyl-L-leucyl-L-arginyl-N-ethyl-L-prolinamide	80	85	more than 98.5%	–	–
[pGlu][His(Trt)]W(Boc)S(tBu)Y(tBu)[dL]L-OH	–	–	–	83	80
